Entries after “also recorded” stand apart in the source; their conditions may differ. At least one compound was matched to its structure with a doubt left.
What was measured:
[1] = tested on: Ag-specific CD8 T cells (OVA tet); test: Vaccine model, Ag-specific CD8 T cells in peripheral blood; format: in vivo, hVISTA KI mice; C57BI/6 mice
spleen monocytes [2] = test: Ex vivo spleen monocyte inflammatory response to LPS after in vivo treatment; design: species or system mouse; details: Dex 2 or 0.2 mg/Kg i.p., monocytes isolated after 2h, LPS 0, 10, 100 ng/ml, 24h supernatants
FKBP5 = FKBP5 transcription in blood and spleen cells, hVISTA KI vs C57BI/6; format: in vivo, hVISTA KI mice; C57BI/6 mice; details: Dex 2 mg/Kg 2h; for FKBP5 transcription in blood and spleen cells: INX231P 10 mg/Kg i.v. 20h
[3] = tested on: peritoneal resident macrophages (PRM); test: In vivo treatment/ex vivo PRM activation, TNFα and IL-6 in supernatant; design: species or system hVISTA mice
Protocol: Based thereon we developed a model to allow us to evaluate long-term anti-inflammatory impact of ADC on specific target populations, such as PRMs. […] In the absence of GC treatment, after 2h PRMs become highly activated as shown by increases in cytokine production. […] The objective of these studies was to evaluate the efficacy and pharmacodynamic range of INX human VISTA antibodies conjugated to a glucocorticoid payload as compared to free Dex.
After euthanasia, mice were injected in the peritoneal cavity with 7 ml of PBS/0.5% BSA/2 mM EDTA. After a brief massage of the peritoneum, a small incision was performed and the peritoneal lavage collected. PRM were isolated using negative selection (Miltenyi kit, ref 130-110-434). Spleen were dissected and dissociated mechanically; monocytes were isolated using […] (Stem Cell, EasySep™ Mouse CD11b Positive Selection Kit II).
PRMs were resuspended in RPMI 1640 with 10% FBS, 10 mM Hepes, Penicillin/Streptomycin and glutamine and 100,000 cells were plated per well in a 96-well tissue culture plate. Supernatants were collected at 2 and 24h post plating and stored at −80° C. […]
• BioLegend (cat #430904) ELISA MAX Deluxe Set Mouse TNF-α • BioLegend (cat #431304) ELISA MAX Deluxe Set Mouse IL-6
ELISAs were conducted following the manufacturer's included protocol.

[4] = tested on: transferred naïve CD4 T cells from hVISTA KI mice; test: T cell transfer colitis model; format: in vivo, Rag1-/- mice; details: EXPERIMENT 2: treatment from day 21, once a week
Protocol: After >21 days, animals slowly start to lose weight and decreases in circulating naïve T cells are observed. In this model, the ADC targets only the transferred cells while the free GC can act on both transferred and host cells.
In EXPERIMENT 1, mice were treated with INX234P at 10 mg/Kg starting on day 0 and then once a week. […] In EXPERIMENT 1 treatment was initiated on day 0 (prophylactic) and terminated on day 61, whereas in EXPERIMENT 2 treatment was initiated on day 21 (or therapeutic) and remains ongoing at the time of this filing.
In both experiments, all treatments were administered once a week.
For EXPERIMENT 1, INX234P treatment was initiated on day 0 (or prophylactic) after naïve CD4 T cell transfer and terminated on day 61.
Naïve CD4 T cells were isolated from hVISTA KI spleen using an EasySep™ Mouse Naïve CD4+ T cell Isolation kit from StemCell (catalog #19765) following manufacturer instruction.
Following the protocol of Ostanin et al (2008), […] naïve CD45RB+, CD4+ T cells were injected i.p. on day 0
10 ml of antibody cocktail (see table on the right) was directly added to […] of blood. After 30 min incubation at room temperature (RT), 600 ml BD FACS lysis buffer was added to the sample. After 30 min incubation at RT, samples were spun at 550 rcf for 5 min, washed once in PBS, and then resuspended in a fixed volume of PBS. […]

[5] = tested on: peritoneal resident macrophages; test: Ex vivo induction of TNFα and IL-6 in peritoneal resident macrophages (PRM) after in vivo treatment; design: species or system mouse; details: evaluated at 2h
OVA-asthma mouse model = format: in vivo, hVISTA KI mice; C57BI/6 mice
spleen monocytes [6] = test: In vivo treatment/ex vivo LPS stimulation of spleen monocytes; design: species or system hVISTA KI mice; C57BI/6 mice; details: LPS 10 or 100 ng/ml
[7] = tested on: LPS-induced cytokine release; test: LPS-induced systemic inflammation, plasma cytokines; format: in vivo, hVISTA mice

C[C@@H]1C[C@H]2[C@@H]3CCC4=CC(=O)C=C[C@]4(C)[C@@]3(F)[C@@H](O)C[C@]2(C)[C@@]1(O)C(=O)CO [Dex, dexamethasone]
number of Ag-specific CD8 T cells, day 6 post immunization ([1]; Experiment 1: C57BI/6 mice, dosed i.p. 2h pre-immunization): Dex at 2 mg/Kg dramatically decreased the number of Ag-specific CD8 T cells; also recorded: clear reduction where also observed at 0.2 mg/Kg
Ag-specific (Ova Tet+ CD8 T cell) responses ([1]; Experiment 3: ADCs 0.2 mg/Kg of GC payload 1 or 7 days pre-immunization, Dex 2h or 7 days pre): showed efficacy when dosed at 2 mg/Kg but lost efficacy at 0.2 mg/Kg or when dosed at 2 mg/Kg 7 days pre-immunization
ex vivo monocyte inflammatory response to LPS (spleen monocytes [2]): decrease in ex vivo monocyte inflammatory response to LPS
FKBP5 transcription in spleen and blood cells (FKBP5; Experiment 1: hVISTA KI male mice, ADCs 5 mg/Kg i.v. (0.1 mg/Kg of payload) 20h): robust FKBP5 inductions
FKBP5 transcription in blood and spleen cells (FKBP5; Experiment 2: C57BI/6 male mice): robust and significant FKBP5 inductions
FKBP5 transcription in blood and spleen cells (FKBP5; Experiment 3: C57BI/6 female or hVISTA KI mice): robust and significant FKBP5 induction
ex vivo PRM activation (IL-6 and TNFα secretion) ([3]; 2 mg/Kg i.p. 2h before cell isolation, supernatant at 1h): can robustly shut down the ex vivo PRM activation
preventing ex vivo induction of TNFα and IL-6 in PRM ([3]; Experiment 6: 7 days post single i.p., ADCs 10 mg/Kg (0.2 mg/Kg of GC payload), Dex 2 mg/Kg, supernatant 2h): lost all efficacy in controlling the cytokine response
pharmacological range in PRM based on TNFα and IL-6 reductions ([3]; mouse, in vivo): lost all potency
T cell numbers in peripheral blood [4]: no differences in T cell numbers between PBS control group and Dex treated groups
ex vivo induction of pro-inflammatory cytokines (IL-6, TNFα) in PRM ([5]; Dex 2 mg/Kg single i.p., supernatant at 1h): prevents the ex vivo induction of pro-inflammatory cytokines in PRM
ex vivo induction of TNFα in PRMs ([5]; Dex 2 and 0.2 mg/Kg single i.p.): prevents the ex vivo induction of TNFα in PRMs
lung disease score (H&E) (OVA-asthma mouse model; Experiment Part 1): similarly and significantly reduced lung damage
cytokine levels in BAL (OVA-asthma mouse model; INX201J 10 mg/Kg x3, Dex 2 mg/Kg daily): Neither INX201J nor Dex treatments had any impact on cytokine levels in BAL
ex vivo monocyte cytokine response to LPS (spleen monocytes [6]; Experiment 1: C57BI/6, Dex 2 or 0.2 mg/Kg i.p. 2h, 24h): reduced cytokine responses at both LPS concentrations
ex vivo monocyte TNFα, MIP-1b, MIP-1a response to LPS (spleen monocytes [6]; Experiment 3: antibodies 10 mg/Kg 24h, Dex 2 mg/Kg 2h before isolation): when cells are stimulated with LPS at 100 ng/ml, Dex treatment appeared to lose potency
LPS-induced IL-12p40 release, plasma 2 and 4h post LPS ([7]; Experiment 1: INX201J 10 mg/Kg (0.2 mg/Kg GC) 2 or 17h pre LPS, Dex 0.02-5 mg/Kg 2h pre LPS): only partial efficacy
LPS-induced MIP-1a, TNFα, IL-1β, IL-12p40 and MIG, plasma 2h post LPS ([7]; Experiment 2: INX201J 0.02, 0.06, 0.2 mg/Kg of GC payload 17h pre LPS, Dex 0.002-2 mg/Kg 2h or 2 mg/Kg 17h pre LPS): Dex at 0.2 mg/Kg has reduced efficacy compared to INX201J; also recorded: loss in potency
LPS-induced TNFα, plasma 2h post LPS ([7]; Experiment 3: INX201J 0.06 and 0.2 mg/Kg of GC payload, IgG1siJ 0.2 mg/Kg of payload 17h pre LPS, Dex 0.2 and 2 mg/Kg 2h pre LPS): free Dex at 0.2 mg/Kg showed no efficacy in preventing the LPS induced up-regulation of TNFα

— patent publication US20250108119A1, “NOVEL STEROID PAYLOADS, STEROID LINKERS, ADCs CONTAINING AND USE THEREOF” (IMMUNEXT, INC., priority 2021, published 2025)
